Out of some 390,000 compounds screened, about 820 (0.21%) were called active. Inconclusive means that the source gave no clear call. Such entries were picked first, then a sample of the others. Calls follow the shape of the dose curve; as a rule, active = well fitted inhibition curve with a large enough effect; inconclusive = small, poorly fitted or top-dose-only effect, or another doubt; inactive = no such curve, though single readings can be large or run the other way. Potencies of inconclusive entries are doubtful fits and often do not repeat.
The compounds below were run against Histone acetyltransferase KAT2A (Homo sapiens) (UniProt Q92830) (assay: qHTS Assay for Inhibitors of GCN5L2). Conditions: GCN5L2 HAT assay, ThioGlo1 CoA-SH fluorescence; activity change, negative = inhibition: at 58.9 µM (top of the series) unless noted.
Summary of the method: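 Enzyme at 20nM final was mixed with library compounds for 15 min at room temperature. Peptide H3(1-25) at 75uM, acetyl-CoA at 70uM and ThioGlo1 at 50uM were then added. Plates were read immediately and after 20 min (Ex340nm/Em540nm).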
% is scaled to controls: 0 for no effect and ±100 for the full control effect; potency is read from the fitted curve at half-maximal effect.

Chains of the proteins cited; added tags and fusions are not shown.
UniProt Q92830, whole entry, looked up: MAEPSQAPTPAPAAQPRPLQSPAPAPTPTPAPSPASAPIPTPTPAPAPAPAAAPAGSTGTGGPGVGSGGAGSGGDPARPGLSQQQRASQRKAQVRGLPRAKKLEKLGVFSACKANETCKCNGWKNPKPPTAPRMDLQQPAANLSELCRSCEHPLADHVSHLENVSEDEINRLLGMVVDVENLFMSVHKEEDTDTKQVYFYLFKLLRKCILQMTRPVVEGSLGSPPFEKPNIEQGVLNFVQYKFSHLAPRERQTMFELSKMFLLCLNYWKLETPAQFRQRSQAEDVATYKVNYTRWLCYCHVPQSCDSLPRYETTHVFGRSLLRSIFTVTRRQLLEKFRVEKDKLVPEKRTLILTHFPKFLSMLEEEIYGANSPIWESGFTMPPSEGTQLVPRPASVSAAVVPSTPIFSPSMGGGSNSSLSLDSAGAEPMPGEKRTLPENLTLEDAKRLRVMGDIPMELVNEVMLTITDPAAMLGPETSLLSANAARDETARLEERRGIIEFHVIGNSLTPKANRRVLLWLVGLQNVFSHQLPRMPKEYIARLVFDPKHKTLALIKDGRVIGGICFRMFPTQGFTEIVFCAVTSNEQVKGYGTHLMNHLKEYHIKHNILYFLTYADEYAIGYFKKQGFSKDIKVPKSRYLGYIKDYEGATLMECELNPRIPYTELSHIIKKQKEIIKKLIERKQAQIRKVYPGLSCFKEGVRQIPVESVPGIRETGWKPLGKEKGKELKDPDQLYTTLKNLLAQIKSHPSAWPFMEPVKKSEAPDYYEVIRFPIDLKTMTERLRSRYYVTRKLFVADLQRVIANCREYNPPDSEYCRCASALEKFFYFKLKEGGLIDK

Structure (SMILES)	Potency	activity change, negative = inhibition
COc1ccc(Cn2c3nc4ccccc4nc3c3c(=O)n(Cc4ccco4)c(C)nc32)cc1	inconclusive: 31.6 µM [inhibitor, single point]	–
COc1ccc(/C=C2\C(=O)N(c3c(Cl)cc(Cl)cc3Cl)N=C2NC(=O)c2cccc([N+](=O)[O-])c2)cc1	inconclusive: 28.2 µM [inhibitor, single point]	–
Cc1nc2ccccc2nc(C)c1=NOCC(=O)N(c1ccccc1)C(C)C	inactive	–
C=CCn1c(-c2cccnc2Cl)nc2ccccc21	inactive	–
CCOC(=O)[C@@]12C[C@@H]1/C(=N/O)c1ccccc1O2	inactive	–
NC(Cc1cc(I)c(Oc2cc(I)c(O)c(I)c2)c(I)c1)C(=O)O (stereo not given)	inconclusive: 39.8 µM [inhibitor, single point]	–
CCCCC(=O)Nc1cccc(NC(=O)c2cccc(Br)c2)c1	inconclusive: 0.631 µM [inhibitor, full curve, poor fit]	–
CC1CCCN(Cc2c(O)ccc3c4c(c(=O)oc23)CCCC4)C1 (stereo not given)	inconclusive: 39.8 µM [inhibitor, single point]	–
Cc1ccc(/C(O)=C2/C(=O)C(=O)OC2c2ccc(Cl)cc2)cc1 (stereo not given)	inconclusive: 25.1 µM [inhibitor, single point]	–
COc1cc(Cl)ccc1OCc1cc(C(=O)N(C)C2CCOC2)no1 (stereo not given)	inconclusive: 10 µM [inhibitor, partial curve]	–
CCOC(=O)c1cc(-c2ccc([N+](=O)[O-])cc2)nc2c1c(=O)[nH]c(=O)n2Cc1ccccc1	inactive	–
O=S(=O)(O)c1ccc(N2N=C(c3ccccc3)CC2c2ccccc2)cc1 (stereo not given)	inconclusive: 39.8 µM [inhibitor, single point]	–
COc1ccc(-n2nc(C(=O)NCC(=O)NC(C)C)c3ccccc3c2=O)cc1Cl	active: 7.08 µM	–
CCCCOc1ccc(C(=O)OCC(=O)NC2CCCC2)cc1	inconclusive: 0.126 µM [inhibitor, full curve, poor fit]	–
O=C(Cc1cccc(C(F)(F)F)c1)Nc1cccc(S(=O)(=O)N2CCCC2)c1	inconclusive: 35.5 µM [inhibitor, single point]	–
Cc1cccc(NC(=O)NC(C)CCc2ccccc2)c1 (stereo not given)	inactive	–
COc1ccc(S(=O)(=O)N(C(=O)c2ccco2)c2cc3sc(=O)oc3c3ccccc23)cc1	inconclusive: 39.8 µM [inhibitor, single point]	–
COc1ccc(-c2ccc(NS(=O)(=O)c3ccc([N+](=O)[O-])cc3)cc2)nn1	inconclusive: 22.4 µM [inhibitor, single point]	–
Cn1cnc(C(=O)N2CCc3ccccc3C2)c1C(=O)N1CCc2ccccc2C1	inconclusive: 35.5 µM [inhibitor, single point]	–
O=C(OCc1ccco1)c1ccc(S(=O)(=O)N2CCCCC2)cc1	inconclusive: 17.8 µM [inhibitor, partial curve, poor fit]	–
Cc1ccc(CCNS(=O)(=O)c2cc3c(cc2Cl)NC(=O)CO3)cc1	inconclusive: 39.8 µM [inhibitor, single point]	–
COc1ccc(-n2nc(C(=O)NCC(=O)NCc3ccc(F)cc3)c3ccccc3c2=O)c(OC)c1	inconclusive: 1.41 µM [inhibitor, single point]	–

In another format: 3 of the compounds above
Structure (SMILES) | Potency | activity change, negative = inhibition
Cc1cccc(NC(=O)NC(C)CCc2ccccc2)c1 (stereo not given) | inactive | –
COc1ccc(S(=O)(=O)N(C(=O)c2ccco2)c2cc3sc(=O)oc3c3ccccc23)cc1 | inconclusive: 39.8 µM [inhibitor, single point] | –
COc1ccc(-c2ccc(NS(=O)(=O)c3ccc([N+](=O)[O-])cc3)cc2)nn1 | inconclusive: 22.4 µM [inhibitor, single point] | –

Additional structures.

Structure (SMILES)	Potency	activity change, negative = inhibition
CC(=O)c1sc(NC(=O)c2cc(=O)c3ccccc3o2)nc1C	inconclusive: 0.631 µM [inhibitor, single point]	–
O=C(Cc1ccccc1)c1c[nH]c(C(=O)NCCCN2CCOCC2)c1	inactive	–
COc1ccc(/C=C/c2nnc(NC(=O)C(C)(C)C)s2)cc1	inconclusive: 10 µM [inhibitor, partial curve, poor fit]	–
Cc1nn(C)c(C(=O)NC(=S)Nc2ccc([N+](=O)[O-])cc2)c1Cl	inconclusive: 0.708 µM [inhibitor, partial curve, poor fit]	–
COc1ccc(CN(C(=O)COc2ccc(C)c(C)c2)C2CCS(=O)(=O)C2)cc1OC (stereo not given)	inconclusive: 1.58 µM [inhibitor, partial curve]	–
COc1cc(C2C(C(=O)c3ccc(C)o3)=C(O)C(=O)N2CCCn2ccnc2)cc(OC)c1OC (stereo not given)	inconclusive: 3.55 µM [inhibitor, partial curve]	–
CCOc1cc(Br)cc(C(c2c(C(=O)O)[nH]c3ccccc23)c2c(C(=O)O)[nH]c3ccccc23)c1O	inconclusive: 39.8 µM [inhibitor, single point]	–
O=c1[nH]c(=S)[nH]c(-c2ccccc2)c1Cc1c(O)ccc2ccccc12	inconclusive: 22.4 µM [inhibitor, partial curve]	–
O=S(=O)(c1cc(Cl)ccc1Cl)N1CCCC1	–	inconclusive: -88.2% [inhibitor] [at 0.501 µM]
COC(=O)c1ccccc1Oc1cnc2ccccc2n1	inconclusive: 8.91 µM [inhibitor, single point]	–
CCCn1c(O)c(/C=C2\C=NN=C2c2ccccc2)sc1=S	active: 2.24 µM	–
CN(C)CCCN1C(=O)C2CCc3[nH]c4ccccc4c3C2C1=O (stereo not given)	inconclusive: 25.1 µM [inhibitor, single point]	–
COC(=O)[C@@H](NC(=O)N1CCC(Cc2ccccc2)CC1)C(C)C	inconclusive: 15.8 µM [inhibitor, partial curve, poor fit]	–
CCOc1ccccc1NC(=O)CSc1nc(=O)n(Cc2ccccn2)c2c1CCC2	inconclusive: 5.01 µM [inhibitor, partial curve]	–
CCCNC(=O)c1c(N)n(-c2cccc(OC)c2)c2nc3ccccc3nc12	inconclusive: 17.8 µM [inhibitor, partial curve, poor fit]	–
CC1Cc2ccccc2N1CC(=O)NCc1ccccc1Cl (stereo not given)	inactive	–
O=C(Nc1cc(C(F)(F)F)ccc1Cl)c1cccc(N2C(=O)CCC2=O)c1	inconclusive: 3.16 µM [inhibitor, full curve]	–
CCOc1ccc(CN2CCNC(=O)C2CC(=O)NCc2cc(C)n(C)n2)cc1 (stereo not given)	inactive	–
Cc1ccc(-c2cc(C(=O)N3CCCC(C(F)(F)F)C3)c3ccccc3n2)o1 (stereo not given)	inconclusive: 15.8 µM [inhibitor, partial curve]	–
COc1ccccc1C1=NC(c2ccccc2)CN1c1ccccc1 (stereo not given)	inactive	–
CC(C)S(=O)(=O)c1csc(NC(=O)Nc2ccc(Cl)cc2)c1Cl	inconclusive: 0.794 µM [inhibitor, full curve, poor fit]	–
O=S(=O)(Cc1ccccc1)N1CCN(Cc2ccccc2)CC1	inconclusive: 39.8 µM [inhibitor, single point]	–

Structure (SMILES)	Potency	activity change, negative = inhibition
COc1ccccc1Cn1[nH]nnc1=S	inconclusive: 39.8 µM [inhibitor, single point]	–
COc1ccc(Br)cc1C(=O)Nc1ccc(NC(=O)c2ccco2)cc1	inactive	–
COc1ncc2nc(-c3cccs3)c(=O)n(-c3ccccc3)c2n1	active: 39.8 µM	–
COCCn1c(SCc2ccc(F)cc2)nc2ccccc2c1=O	inconclusive: 14.1 µM [inhibitor, partial curve, poor fit]	–
CCCCCCCCCCCCCCCCCC(=O)NCC(COP(=O)([O-])OCC[N+](C)(C)C)OCC (stereo not given)	inconclusive: 39.8 µM [inhibitor, single point]	–
COc1ccc(C(c2c(C)n(C)n(-c3ccccc3)c2=O)c2c(C)n(C)n(-c3ccccc3)c2=O)c(OC)c1OC	inconclusive: 7.94 µM [inhibitor, single point]	–
Cc1ccc(CNC(=O)CSc2nc3ccsc3c(=O)n2-c2ccc(C(=O)O)cc2)cc1	inactive	–
O=C(O)Cn1c2c(c3ccccc31)CSc1ccc(Cl)cc1-2	inconclusive: 39.8 µM [inhibitor, single point]	–
CCN1C(=O)C(O)(C2COC(C)(C)CC2=O)c2cc(Br)ccc21 (stereo not given)	inconclusive: 0.141 µM [inhibitor, full curve, poor fit]	–
O=C(O)c1ccc(S(=O)(=O)N(CCc2ccccc2)Cc2ccc(Cl)cc2)cc1	inconclusive: 39.8 µM [inhibitor, single point]	–
Cc1onc(-c2ccccc2)c1C(=O)N/N=C/c1ccc(Br)cc1	inconclusive: 0.1 µM [inhibitor, full curve, poor fit]	–
CCCCC1(C)NC(=S)N2N1C(=S)NC2(C)CCCC (stereo not given)	inconclusive: 35.5 µM [inhibitor, single point]	–
COc1ccccc1-c1nnc(NC(=O)c2ccc3c(c2)OCO3)s1	inactive	–
COc1ccc(C)cc1NC(=O)C(CCSC)NS(=O)(=O)c1ccc2c(c1)oc(=O)n2C (stereo not given)	inactive	–
CCOc1ccc(/C=N/NC(=O)C(=O)N2CCCCCC2)c2ccccc12	inconclusive: 1 µM [inhibitor, single point]	–
COc1cccc(NC(=O)c2sc3nc(C)c(C(=O)Nc4ccc(C)cc4C)c(-c4ccc(Br)cc4)c3c2N)c1	inconclusive: 22.4 µM [inhibitor, single point]	–
Cc1ccc(C2C(C#N)=C(N)SC(N)=C2C#N)o1	inconclusive: 28.2 µM [inhibitor, single point]	–
CCOc1c2ccc(C(=O)NCc3ccccc3OC)cc2nn1CC	inconclusive: 5.01 µM [inhibitor, single point]	–
CCO/C([O-])=N/c1c[n+](N2CCOCC2)no1	inconclusive: 39.8 µM [inhibitor, single point]	–
O=C(Nc1ccc(S(=O)(=O)N2CCOCC2)cc1)C1CCCCC1	inconclusive: 0.891 µM [inhibitor, full curve, poor fit]	–
CCCc1nc2ccccc2c(C(=O)OC(C)C(=O)NCc2ccc3c(c2)OCO3)c1CC (stereo not given)	inactive	–

— PubChem BioAssay AID504327 (National Center for Advancing Translational Sciences (NCATS), 2011)
